{"source": "patent US9629851B2", "about": "“ROCK in combination with MAPK pathway” (Stichting Het Nederlands Kanker Instituut—Antoni van …, priority 2013, dated 2017)", "system": "NRAS mutant melanoma cells SK-MEL-147", "assay": "SK-MEL-147 xenograft in NOD/SCID mice", "type": "in vivo", "conditions": "GSK1120212 0.05 mg/kg or GSK269962A 10 mg/kg alone, oral gavage once daily", "note": "At least one structure is not confirmed: it was looked up by name or label, or the drawing left a doubt."}
{"smiles": "CC(=O)Nc1cccc(-n2c(=O)n(C3CC3)c(=O)c3c(Nc4ccc(I)cc4F)n(C)c(=O)c(C)c32)c1", "note": "[GSK1120212]", "values": [{"measurement": "effect as single agent", "value": "only a weak effect as single agents"}]}
